According to patent US20250271442A1, “Methods for Detecting Renal Disease” (IDEXX Laboratories, Inc., priority 2013, published 2025):
Some entries share one result that the patent states for a list of compounds.

Tested on: all 6 rabbit anti-SDMA sera
Assay: Competitive ELISA, cross-reactivity of all 6 rabbit anti-SDMA sera
Assay type: binding
Settings: summary of Table 1

SMILES	cross-reactivities of all 6 rabbit anti-SDMA sera
CNC(=N)NCCCC(N)C(=O)O (centres unmarked) [N-MMA, N-monomethylarginine]	< 1%
CN(C)C(=N)NCCCC(N)C(=O)O (centres unmarked) [ADMA, asymmetrical dimethylarginine]	< 1%
